These are yes or no findings as the source states them, for the method shown. In cells and extracts the contact can be indirect. Here binding means that the protein was enriched with, or labelled near, the bait; the list need not be complete. Where a sequence is shown, tags or fusion partners need not be part of it.

For the assay, the target named is HA-tagged GST-POM121C (801–987) (human) (UniProt A8CG34). Put plainly: affinity purification with mass spectrometry.

B1: Nuclear pore complex protein Nup93 (protein, UniProt Q8N1F7 1-819)
chain: MDTEGFGELLQQAEQLAAETEGISELPHVERNLQEIQQAGERLRSRTLTRTSQETADVKASVLLGSRGLDISHISQRLESLSAATTFEPLEPVKDTDIQGFLKNEKDNALLSAIEESRKRTFGMAEEYHRESMLVEWEQVKQRILHTLLASGEDALDFTQESEPSYISDVGPPGRSSLDNIEMAYARQIYIYNEKIVNGHLQPNLVDLCASVAELDDKSISDMWTMVKQMTDVLLTPATDALKNRSSVEVRMEFVRQALAYLEQSYKNYTLVTVFGNLHQAQLGGVPGTYQLVRSFLNIKLPAPLPGLQDGEVEGHPVWALIYYCMRCGDLLAASQVVNRAQHQLGEFKTWFQEYMNSKDRRLSPATENKLRLHYRRALRNNTDPYKRAVYCIIGRCDVTDNQSEVADKTEDYLWLKLNQVCFDDDGTSSPQDRLTLSQFQKQLLEDYGESHFTVNQQPFLYFQVLFLTAQFEAAVAFLFRMERLRCHAVHVALVLFELKLLLKSSGQSAQLLSHEPGDPPCLRRLNFVRLLMLYTRKFESTDPREALQYFYFLRDEKDSQGENMFLRCVSELVIESREFDMILGKLENDGSRKPGVIDKFTSDTKPIINKVASVAENKGLFEEAAKLYDLAKNADKVLELMNKLLSPVVPQISAPQSNKERLKNMALSIAERYRAQGISANKFVDSTFYLLLDLITFFDEYHSGHIDRAFDIIERLKLVPLNQESVEERVAAFRNFSDEIRHNLSEVLLATMNILFTQFKRLKGTSPSSSSRPQRVIEDRDSQLRSQARTLITFAGMIPYRTSGDTNARLVQMEVLMN
Take B1: the binding entry is “binds”.

B2: Nuclear pore complex protein Nup107 (protein, UniProt P57740 1-925)
chain: MDRSGFGEISSPVIREAEVTRTARKQSAQKRVLLQASQDENFGNTTPRNQVIPRTPSSFRQPFTPTSRSLLRQPDISCILGTGGKSPRLTQSSGFFGNLSMVTNLDDSNWAAAFSSQRSGLFTNTEPHSITEDVTISAVMLREDDPGEAASMSMFSDFLQSFLKHSSSTVFDLVEEYENICGSQVNILSKIVSRATPGLQKFSKTASMLWLLQQEMVTWRLLASLYRDRIQSALEEESVFAVTAVNASEKTVVEALFQRDSLVRQSQLVVDWLESIAKDEIGEFSDNIEFYAKSVYWENTLHTLKQRQLTSYVGSVRPLVTELDPDAPIRQKMPLDDLDREDEVRLLKYLFTLIRAGMTEEAQRLCKRCGQAWRAATLEGWKLYHDPNVNGGTELEPVEGNPYRRIWKISCWRMAEDELFNRYERAIYAALSGNLKQLLPVCDTWEDTVWAYFRVMVDSLVEQEIQTSVATLDETEELPREYLGANWTLEKVFEELQATDKKRVLEENQEHYHIVQKFLILGDIDGLMDEFSKWLSKSRNNLPGHLLRFMTHLILFFRTLGLQTKEEVSIEVLKTYIQLLIREKHTNLIAFYTCHLPQDLAVAQYALFLESVTEFEQRHHCLELAKEADLDVATITKTVVENIRKKDNGEFSHHDLAPALDTGTTEEDRLKIDVIDWLVFDPAQRAEALKQGNAIMRKFLASKKHEAAKEVFVKIPQDSIAEIYNQCEEQGMESPLPAEDDNAIREHLCIRAYLEAHETFNEWFKHMNSVPQKPALIPQPTFTEKVAHEHKEKKYEMDFGIWKGHLDALTADVKEKMYNVLLFVDGGWMVDVREDAKEDHERTHQMVLLRKLCLPMLCFLLHTILHSTGQYQECLQLADMVSSERHKLYLVFSKEELRKLLQKLRESSLMLLDQGLDPLGYEIQL
Take B2: the binding result is reported as “binds”.

B3: Myosin-Id (protein, UniProt O94832 1-1006)
chain: MAEQESLEFGKADFVLMDTVSMPEFMANLRLRFEKGRIYTFIGEVVVSVNPYKLLNIYGRDTIEQYKGRELYERPPHLFAIADAAYKAMKRRSKDTCIVISGESGAGKTEASKYIMQYIAAITNPSQRAEVERVKNMLLKSNCVLEAFGNAKTNRNDNSSRFGKYMDINFDFKGDPIGGHINNYLLEKSRVIVQQPGERSFHSFYQLLQGGSEQMLRSLHLQKSLSSYNYIHVGAQLKSSINDAAEFRVVADAMKVIGFKPEEIQTVYKILAAILHLGNLKFVVDGDTPLIENGKVVSIIAELLSTKTDMVEKALLYRTVATGRDIIDKQHTEQEASYGRDAFAKAIYERLFCWIVTRINDIIEVKNYDTTIHGKNTVIGVLDIYGFEIFDNNSFEQFCINYCNEKLQQLFIQLVLKQEQEEYQREGIPWKHIDYFNNQIIVDLVEQQHKGIIAILDDACMNVGKVTDEMFLEALNSKLGKHAHFSSRKLCASDKILEFDRDFRIRHYAGDVVYSVIGFIDKNKDTLFQDFKRLMYNSSNPVLKNMWPEGKLSITEVTKRPLTAATLFKNSMIALVDNLASKEPYYVRCIKPNDKKSPQIFDDERCRHQVEYLGLLENVRVRRAGFAFRQTYEKFLHRYKMISEFTWPNHDLPSDKEAVKKLIERCGFQDDVAYGKTKIFIRTPRTLFTLEELRAQMLIRIVLFLQKVWRGTLARMRYKRTKAALTIIRYYRRYKVKSYIHEVARRFHGVKTMRDYGKHVKWPSPPKVLRRFEEALQTIFNRWRASQLIKSIPASDLPQVRAKVAAVEMLKGQRADLGLQRAWEGNYLASKPDTPQTSGTFVPVANELKRKDKYMNVLFSCHVRKVNRFSKVEDRAIFVTDRHLYKMDPTKQYKVMKTIPLYNLTGLSVSNGKDQLVVFHTKDNKDLIVCLFSKQPTHESRIGELVGVLVNHFKSEKRHLQVNVTNPVQCSLHGKKCTVSVETRLNQPQPDFTKNRSGFILSVPGN
With B3, the binding result is on record as “binds”.

B4: Cysteinyl-tRNA synthetase, cytoplasmic (protein, UniProt P49589 1-748)
chain: MADSSGQQGKGRRVQPQWSPPAGTQPCRLHLYNSLTRNKEVFIPQDGKKVTWYCCGPTVYDASHMGHARSYISFDILRRVLKDYFKFDVFYCMNITDIDDKIIKRARQNHLFEQYREKRPEAAQLLEDVQAALKPFSVKLNETTDPDKKQMLERIQHAVQLATEPLEKAVQSRLTGEEVNSCVEVLLEEAKDLLSDWLDSTLGCDVTDNSIFSKLPKFWEGDFHRDMEALNVLPPDVLTRVSEYVPEIVNFVQKIVDNGYGYVSNGSVYFDTAKFASSEKHSYGKLVPEAVGDQKALQEGEGDLSISADRLSEKRSPNDFALWKASKPGEPSWPCPWGKGRPGWHIECSAMAGTLLGASMDIHGGGFDLRFPHHDNELAQSEAYFENDCWVRYFLHTGHLTIAGCKMSKSLKNFITIKDALKKHSARQLRLAFLMHSWKDTLDYSSNTMESALQYEKFLNEFFLNVKDILRAPVDITGQFEKWGEEEAELNKNFYDKKTAIHKALCDNVDTRTVMEEMRALVSQCNLYMAARKAVRKRPNQALLENIALYLTHMLKIFGAVEEDSSLGFPVGGPGTSLSLEATVMPYLQVLSEFREGVRKIAREQKVPEILQLSDALRDNILPELGVRFEDHEGLPTVVKLVDRNTLLKEREEKRRVEEEKRKKKEEAARRKQEQEAAKLAKMKIPPSEMFLSETDKYSKFDENGLPTHDMEGKELSKGQAKKLKKLFEAQEKLYKEYLQMAQNGSFQ
With B4, the binding entry is on record as “binds”.

The record behind these values is publication PMC5584925.
